Source: article PMC7261193, “The ancillary N-terminal region of the yeast AP-1 transcription factor Yap8 contributes to its DNA binding specificity”
Residue numbers refer to the chain shown, from its start. For at least one entry, the source does not settle the construct or the ends of the probe. For some assays here: A negative result means that nothing was seen under these conditions. For some assays here: At least one verdict rests on a figure or table, not on a statement of the authors. For some assays here: Where a protein sequence is shown, tags need not be part of it. For some assays here: Weaker means in comparison with the reference protein, sequence or condition of that experiment.

Amino acid sequences for entries named in this document (tags omitted). A change or cut given only in a name is not applied to a line headed by its entry.
UniProt Q06596: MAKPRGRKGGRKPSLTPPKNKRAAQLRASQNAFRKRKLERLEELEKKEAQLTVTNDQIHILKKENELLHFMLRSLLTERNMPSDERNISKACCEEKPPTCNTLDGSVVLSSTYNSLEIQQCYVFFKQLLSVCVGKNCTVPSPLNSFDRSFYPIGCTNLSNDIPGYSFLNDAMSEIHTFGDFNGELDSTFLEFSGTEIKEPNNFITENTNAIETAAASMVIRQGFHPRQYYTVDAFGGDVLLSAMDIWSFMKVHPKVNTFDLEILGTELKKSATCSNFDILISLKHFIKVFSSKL

Experiments:
Assay in all cases: EMSA
[1] = target: T1, GST-Yap8-R7K (Saccharomyces cerevisiae) (UniProt Q06596); conditions: Biotin EMSA: LightShift 1x buffer, 50 ng poly(dI-dC), 2.5% glycerol, 0.05% NP-40, 5 mM MgCl2, 20 fmol probe, RT 20 min. 32P EMSA: 10 mM Tris-HCl pH 8.0, 50 mM NaCl; recombinant protein; protein details: GST (N-term); label: 5' biotin (Fig 3A, 5, 8B)
T1 sequence (looked up, limits assumed): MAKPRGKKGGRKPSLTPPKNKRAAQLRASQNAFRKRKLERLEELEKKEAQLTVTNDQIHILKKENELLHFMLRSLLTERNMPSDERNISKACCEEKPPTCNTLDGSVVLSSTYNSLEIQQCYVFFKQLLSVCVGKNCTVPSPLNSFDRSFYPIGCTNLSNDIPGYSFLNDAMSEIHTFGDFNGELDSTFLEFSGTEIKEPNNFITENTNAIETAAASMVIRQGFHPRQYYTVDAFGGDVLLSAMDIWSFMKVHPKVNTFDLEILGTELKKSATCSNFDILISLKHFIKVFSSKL

[2] = target: T2, GST-Yap8-R11A (Saccharomyces cerevisiae) (UniProt Q06596); conditions: Biotin EMSA: LightShift 1x buffer, 50 ng poly(dI-dC), 2.5% glycerol, 0.05% NP-40, 5 mM MgCl2, 20 fmol probe, RT 20 min. 32P EMSA: 10 mM Tris-HCl pH 8.0, 50 mM NaCl; recombinant protein; protein details: GST (N-term); label: 5' biotin (Fig 3A, 5, 8B)
T2 sequence (looked up, limits assumed): T1 sequence (looked up, limits assumed) with K7R, R11A

[3] = target: GST-Yap8-7aa A23T,L26N,S29A,N31R,K35E,L37E,E39R (Saccharomyces cerevisiae) (UniProt Q06596); conditions: Biotin EMSA: LightShift 1x buffer, 50 ng poly(dI-dC), 2.5% glycerol, 0.05% NP-40, 5 mM MgCl2, 20 fmol probe, RT 20 min. 32P EMSA: 10 mM Tris-HCl pH 8.0, 50 mM NaCl, recombinant protein, protein details: GST (N-term)
[4] = target: T3, GST-Yap8-Q25A (Saccharomyces cerevisiae) (UniProt Q06596); conditions: Biotin EMSA: LightShift 1x buffer, 50 ng poly(dI-dC), 2.5% glycerol, 0.05% NP-40, 5 mM MgCl2, 20 fmol probe, RT 20 min. 32P EMSA: 10 mM Tris-HCl pH 8.0, 50 mM NaCl; recombinant protein; protein details: GST (N-term); label: 5' biotin (Fig 3A, 5, 8B)
T3 sequence (looked up, limits assumed): T1 sequence (looked up, limits assumed) with K7R, Q25A

[5] = target: T4, GST-Yap8 WT (Saccharomyces cerevisiae) (UniProt Q06596); conditions: Biotin EMSA: LightShift 1x buffer, 50 ng poly(dI-dC), 2.5% glycerol, 0.05% NP-40, 5 mM MgCl2, 20 fmol probe, RT 20 min. 32P EMSA: 10 mM Tris-HCl pH 8.0, 50 mM NaCl, recombinant protein, protein details: GST (N-term)
T4 sequence (looked up, limits assumed): T1 sequence (looked up, limits assumed) with K7R

[6] = target: T5, GST-Yap8-N20A (Saccharomyces cerevisiae) (UniProt Q06596); conditions: Biotin EMSA: LightShift 1x buffer, 50 ng poly(dI-dC), 2.5% glycerol, 0.05% NP-40, 5 mM MgCl2, 20 fmol probe, RT 20 min. 32P EMSA: 10 mM Tris-HCl pH 8.0, 50 mM NaCl, recombinant protein, protein details: GST (N-term)
T5 sequence (looked up, limits assumed): T1 sequence (looked up, limits assumed) with K7R, N20A

[7] = target: T6, GST-Yap8-R7A (Saccharomyces cerevisiae) (UniProt Q06596); conditions: Biotin EMSA: LightShift 1x buffer, 50 ng poly(dI-dC), 2.5% glycerol, 0.05% NP-40, 5 mM MgCl2, 20 fmol probe, RT 20 min. 32P EMSA: 10 mM Tris-HCl pH 8.0, 50 mM NaCl; recombinant protein; protein details: GST (N-term); label: 5' biotin (Fig 3A, 5, 8B)
T6 sequence (looked up, limits assumed): T1 sequence (looked up, limits assumed) with K7A

[8] = target: GST-Yap8-8aa N20Q,A23T,L26N,S29A,N31R,K35E,L37E,E39R (Saccharomyces cerevisiae) (UniProt Q06596); conditions: Biotin EMSA: LightShift 1x buffer, 50 ng poly(dI-dC), 2.5% glycerol, 0.05% NP-40, 5 mM MgCl2, 20 fmol probe, RT 20 min. 32P EMSA: 10 mM Tris-HCl pH 8.0, 50 mM NaCl, recombinant protein, protein details: GST (N-term)
[9] = target: T7, GST-Yap8-N20Q (Saccharomyces cerevisiae) (UniProt Q06596); conditions: no stable binding; Biotin EMSA: LightShift 1x buffer, 50 ng poly(dI-dC), 2.5% glycerol, 0.05% NP-40, 5 mM MgCl2, 20 fmol probe, RT 20 min. 32P EMSA: 10 mM Tris-HCl pH 8.0, 50 mM NaCl; recombinant protein; protein details: GST (N-term); label: 32P 5'
T7 sequence (looked up, limits assumed): T1 sequence (looked up, limits assumed) with K7R, N20Q

[10] = target: T8, GST-Yap8-4aa A23T,L26N,S29A,N31R (Saccharomyces cerevisiae) (UniProt Q06596); conditions: 100 ng protein needed; Biotin EMSA: LightShift 1x buffer, 50 ng poly(dI-dC), 2.5% glycerol, 0.05% NP-40, 5 mM MgCl2, 20 fmol probe, RT 20 min. 32P EMSA: 10 mM Tris-HCl pH 8.0, 50 mM NaCl; recombinant protein; protein details: GST (N-term); label: 32P 5'
T8 sequence (looked up, limits assumed): T1 sequence (looked up, limits assumed) with K7R, A23T, L26N, S29A, N31R

[11] = label: 5' biotin (Fig 3A, 5, 8B)
[12] = no stable binding, label: 32P 5'
[13] = 100 ng protein needed, label: 32P 5'

TCTTAATTATCTTTTTGTTTGATTAATAATCAACTTTAGCGGCAACGCTCC (double strand) [ACR3short (WT)]
binding result [1]: binds more weakly | binding result [2]: binds more weakly | binding result [3, 11]: binds | binding result [4]: binds more weakly | binding result [5, 11]: binds | binding result [6, 11]: binds more weakly | binding result [7]: binds more weakly | binding result [8, 11]: binds more weakly

ATTGTTTATACTCTTAGTAAAGGATGCTCCCTACAAGGTGGCTCTTTTCTTACTAAGCGCGTTCAGTTTC (double strand) [TRX2short]
binding result [3, 12]: no binding | binding result [9]: no binding | binding result [5, 12]: no binding | binding result [6, 12]: no binding | binding result [8, 12]: no binding

TCTTAATTATCTTTTTGTTTGATTAATAATCAACTTTAGCGGCAACGCTCC (double strand) [ACR3short (32P)]
binding result ([5]; stable with 10 ng protein, label: 32P 5'): binds

TCTTAATTATCTTTTTGTTTGATTAATAATCAACCGGAGCGGCAACGCTCC (double strand) [ACR3-M2]
binding result ([5]; label: 5' biotin): binds more weakly

TCTTAATTATCTTTGCGGCTGATTAATAATCAACCGGAGCGGCAACGCTCC (double strand) [ACR3-M3]
binding result ([5]; label: 5' biotin): binds more weakly

TTCTGCCCAACGACGGCTGCCATTAGTCAGCATGGCGCGCACGTGACTACA (double strand) [GSH1short]
binding result [10]: binds more weakly | binding result [3, 13]: binds more weakly | binding result [8, 13]: binds more weakly

TCTTAATTATCTTTGCGGCTGATTAATAATCAACTTTAGCGGCAACGCTCC (double strand) [ACR3-M1]
binding result ([5]; label: 5' biotin): binds more weakly
